± gives the standard deviation of the averaged measurements. The reference is the same well before dosing, and untreated signal decays as well.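 Fibroblast labels name human fibroblasts: mostly primary ones from tissues such as uterus (C12385, HUF), lung (H6013), bone (Hs27A), adrenal (HADF) and skin (WS1), plus mammary HMF and breast cancer-associated Hs343T. The cancer cells are basal-like or mesenchymal-like triple-negative breast cancer lines. The paper calls a changed response a hit when it shifts by more than 3x the replicate standard deviation. The tissue of the other fibroblasts is not given here.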
Test system: MDAMB231
Test: relative JC-1 red fluorescence (viability) vs pre-drug, coculture with fibroblast (fraction); higher = more viable cancer cells
Procedure: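 JC-1 labelled TNBC cells cocultured 1:1 (1,500 cells each) with CellTrace Violet stained primary or stromal fibroblasts in 384-well plates in FluoroBrite medium, treated with one of 42 anticancer drugs at 0.1, 1, 10 or 100 uM. JC-1 red fluorescence (mitochondrial integrity in cancer cells only) was read by plate reader every 8 h for 72 h. Values are normalised to each well's pre-drug value. The stock of one drug was tenfold lower, so its dose labels may be too high.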

CS(=O)(=O)CCNCc1ccc(-c2ccc3ncnc(Nc4ccc(OCc5cccc(F)c5)c(Cl)c4)c3c2)o1 [Lapatinib]
relative JC-1 red fluorescence
Details | 8 h | 16 h | 24 h | 32 h | 40 h | 48 h | 56 h | 64 h | 72 h
10 µM, coculture fibroblast: C12385 | 0.7693 ± 0.0054 | 0.818 ± 0.0088 | 0.654 ± 0.024 | 0.859 ± 0.0088 | 0.877 ± 0.019 | 0.88 ± 0.014 | 0.869 ± 0.0032 | 0.8504 ± 0.003 | 0.8485 ± 0.0017
10 µM, coculture fibroblast: H6013 | 0.8479 ± 0.00015 | 0.83711 ± 4.2e-05 | 0.833 ± 0.012 | 0.8696 ± 0.0047 | 0.868 ± 0.01 | 0.8155 ± 0.0041 | 0.862 ± 0.011 | 0.8535 ± 0.0037 | 0.843 ± 0.0041
10 µM, coculture fibroblast: H6019 | 0.7999 ± 0.0037 | 0.815 ± 0.011 | 0.7473 ± 0.0044 | 0.87044 ± 0.00015 | 0.8554 ± 0.0014 | 0.851 ± 0.014 | 0.831 ± 0.016 | 0.805 ± 0.031 | 0.783 ± 0.032
10 µM, coculture fibroblast: H6076 | 0.9746 ± 0.005 | 0.9449 ± 0.0036 | 0.9469 ± 0.0079 | 0.9924 ± 0.0042 | 0.757 ± 0.092 | 0.719 ± 0.014 | 0.86 ± 0.17 | 0.862 ± 0.15 | 0.913 ± 0.087
10 µM, coculture fibroblast: H6231 | 0.97792 ± 0.00085 | 0.945 ± 0.03 | 0.916 ± 0.024 | 0.902 ± 0.016 | 0.897 ± 0.026 | 0.883 ± 0.025 | 0.862 ± 0.035 | 0.834 ± 0.031 | 0.819 ± 0.036
10 µM, coculture fibroblast: HADF | 0.855 ± 0.014 | 0.837 ± 0.019 | 0.831 ± 0.033 | 0.835 ± 0.025 | 0.837 ± 0.013 | 0.753 ± 0.013 | 0.8051 ± 0.0037 | 0.8076 ± 0.0023 | 0.772 ± 0.016
10 µM, coculture fibroblast: HCFa | 0.893 ± 0.0035 | 0.863 ± 0.014 | 0.8818 ± 0.0043 | 0.916 ± 0.025 | 0.939 ± 0.053 | 0.894 ± 0.059 | 0.929 ± 0.088 | 0.781 ± 0.099 | 0.806 ± 0.03
10 µM, coculture fibroblast: HCPF | 0.78 ± 0.049 | 0.872 ± 0.13 | 0.844 ± 0.14 | 0.83 ± 0.16 | 0.816 ± 0.16 | 0.815 ± 0.15 | 0.932 ± 0.045 | 0.913 ± 0.033 | 0.894 ± 0.025
10 µM, coculture fibroblast: HHSteC | 0.854 ± 0.016 | 0.848 ± 0.019 | 0.862 ± 0.017 | 0.894 ± 0.015 | 0.901 ± 0.02 | 0.874 ± 0.021 | 0.879 ± 0.025 | 0.896 ± 0.026 | 0.875 ± 0.033
10 µM, coculture fibroblast: HMF | 0.794 ± 0.11 | 0.839 ± 0.19 | 0.964 ± 0.032 | 0.953 ± 0.025 | 0.952 ± 0.023 | 0.948 ± 0.03 | 0.93 ± 0.02 | 0.905 ± 0.027 | 0.893 ± 0.023
10 µM, coculture fibroblast: HPFa | 0.908 ± 0.02 | 0.906 ± 0.049 | 0.881 ± 0.035 | 0.899 ± 0.027 | 0.947 ± 0.033 | 0.921 ± 0.025 | 0.931 ± 0.022 | 0.934 ± 0.016 | 0.9141 ± 0.0062
10 µM, coculture fibroblast: HUF | 0.844 | 0.806 | 0.805 | 0.792 | 0.751 | 0.756 | 0.802 ± 0.11 | 0.72 ± 0.015 | 0.803 ± 0.16
10 µM, coculture fibroblast: Hs5 | 0.864 ± 0.14 | 0.822 ± 0.18 | 0.929 ± 0.047 | 0.836 ± 0.19 | 0.874 ± 0.14 | 0.872 ± 0.15 | 0.99641 ± 0.00044 | 0.99 ± 0.0088 | 0.939 ± 0.057
10 µM, coculture fibroblast: Hs27A | 0.8714 ± 0.0079 | 0.832 ± 0.033 | 0.812 ± 0.056 | 0.813 ± 0.054 | 0.788 ± 0.051 | 0.693 ± 0.052 | 0.765 ± 0.044 | 0.766 ± 0.026 | 0.764 ± 0.032
10 µM, coculture fibroblast: Hs343T | 0.781 ± 0.036 | 0.73 ± 0.019 | 0.75 ± 0.064 | 0.809 ± 0.053 | 0.862 ± 0.0052 | 0.758 ± 0.028 | 0.769 ± 0.047 | 0.96 ± 0.035 | 0.821 ± 0.18
10 µM, coculture fibroblast: WS1 | 0.764 ± 0.0084 | 0.795 ± 0.027 | 0.6686 ± 0.0038 | 0.852 ± 0.0087 | 0.9023 ± 0.0078 | 0.9237 ± 0.0053 | 0.9287 ± 0.008 | 0.918 ± 0.017 | 0.889 ± 0.025
100 µM, coculture fibroblast: C12385 | 0.778 ± 0.0028 | 0.745 ± 0.018 | 0.6986 ± 0.0025 | 0.717 ± 0.0076 | 0.68 ± 0.031 | 0.666 ± 0.018 | 0.636 ± 0.023 | 0.635 ± 0.035 | 0.615 ± 0.032
100 µM, coculture fibroblast: H6013 | 0.919 ± 0.024 | 0.878 ± 0.025 | 0.845 ± 0.03 | 0.824 ± 0.06 | 0.806 ± 0.073 | 0.789 ± 0.078 | 0.803 ± 0.093 | 0.783 ± 0.11 | 0.742 ± 0.1
100 µM, coculture fibroblast: H6019 | 0.803 ± 0.047 | 0.75 ± 0.038 | 0.718 ± 0.052 | 0.689 ± 0.013 | 0.65523 ± 0.00048 | 0.637 ± 0.0051 | 0.603 ± 0.012 | 0.5938 ± 0.0021 | 0.556 ± 0.009
100 µM, coculture fibroblast: H6076 | 0.913 ± 0.013 | 0.872 ± 0.049 | 0.862 ± 0.054 | 0.837 ± 0.06 | 0.812 ± 0.056 | 0.779 ± 0.059 | 0.755 ± 0.067 | 0.74 ± 0.069 | 0.734 ± 0.073
100 µM, coculture fibroblast: H6231 | 0.954 ± 0.028 | 0.877 ± 0.032 | 0.835 ± 0.022 | 0.785 ± 0.028 | 0.739 ± 0.037 | 0.705 ± 0.044 | 0.66 ± 0.064 | 0.635 ± 0.054 | 0.614 ± 0.053
100 µM, coculture fibroblast: HADF | 0.892 ± 0.036 | 0.886 ± 0.042 | 0.857 ± 0.034 | 0.829 ± 0.021 | 0.81 ± 0.024 | 0.7514 ± 0.004 | 0.761 ± 0.01 | 0.744 ± 0.0052 | 0.7071 ± 0.0012
100 µM, coculture fibroblast: HCFa | 0.929 ± 0.021 | 0.911 ± 0.037 | 0.879 ± 0.066 | 0.872 ± 0.091 | 0.829 ± 0.1 | 0.767 ± 0.099 | 0.761 ± 0.11 | 0.735 ± 0.12 | 0.699 ± 0.11
100 µM, coculture fibroblast: HCPF | 0.903 ± 0.025 | 0.813 ± 0.03 | 0.762 ± 0.012 | 0.742 ± 0.011 | 0.7 ± 0.018 | 0.6566 ± 0.0018 | 0.625 ± 0.022 | 0.596 ± 0.016 | 0.565 ± 0.028
100 µM, coculture fibroblast: HHSteC | 0.9152 ± 0.0013 | 0.8739 ± 0.0017 | 0.8338 ± 0.0078 | 0.801 ± 0.02 | 0.77 ± 0.012 | 0.732 ± 0.021 | 0.696 ± 0.021 | 0.665 ± 0.023 | 0.63 ± 0.034
100 µM, coculture fibroblast: HMF | 0.99212 ± 0.00024 | 0.937 ± 0.024 | 0.917 ± 0.066 | 0.899 ± 0.11 | 0.88 ± 0.13 | 0.847 ± 0.14 | 0.818 ± 0.16 | 0.805 ± 0.17 | 0.782 ± 0.19
100 µM, coculture fibroblast: HPFa | 0.9844 ± 0.0098 | 0.9509 ± 0.007 | 0.901 ± 0.037 | 0.859 ± 0.044 | 0.837 ± 0.045 | 0.795 ± 0.054 | 0.748 ± 0.062 | 0.723 ± 0.067 | 0.674 ± 0.058
100 µM, coculture fibroblast: HUF | 0.903 ± 0.022 | 0.829 ± 0.04 | 0.863 ± 0.061 | 0.778 ± 0.089 | 0.715 ± 0.1 | 0.709 ± 0.12 | 0.66 ± 0.13 | 0.647 ± 0.13 | 0.63 ± 0.14
100 µM, coculture fibroblast: Hs5 | 0.931 ± 0.014 | 0.866 ± 0.012 | 0.82 ± 0.01 | 0.77923 ± 0.00064 | 0.727 ± 0.0094 | 0.673 ± 0.015 | 0.644 ± 0.018 | 0.615 ± 0.021 | 0.591 ± 0.024
100 µM, coculture fibroblast: Hs27A | 0.928 ± 0.021 | 0.888 ± 0.041 | 0.863 ± 0.063 | 0.853 ± 0.09 | 0.817 ± 0.099 | 0.729 ± 0.11 | 0.769 ± 0.13 | 0.75 ± 0.13 | 0.706 ± 0.13
100 µM, coculture fibroblast: Hs343T | 0.878 ± 0.17 | 0.942 ± 0.02 | 0.916 ± 0.028 | 0.887 ± 0.049 | 0.844 ± 0.063 | 0.808 ± 0.084 | 0.768 ± 0.095 | 0.753 ± 0.1 | 0.722 ± 0.09
100 µM, coculture fibroblast: WS1 | 0.736 ± 0.014 | 0.726 ± 0.041 | 0.644 ± 0.018 | 0.615 ± 0.053 | 0.576 ± 0.048 | 0.548 ± 0.048 | 0.504 ± 0.052 | 0.495 ± 0.052 | 0.463 ± 0.046
